# Experimental data reported in PubChem BioAssay AID624297 (National Center for Advancing Translational Sciences (NCATS), 2012).
# Among all 340,000 compounds or so, about 6,200 (1.8%) were called active. The inconclusive results got no clear call from the source; some entries with a clear call stand among them for comparison. Calls follow the shape of the dose curve; as a rule, active = well fitted activation curve with a large enough effect; inconclusive = small, poorly fitted or top-dose-only effect; inactive = no such curve, though single readings can be large or run the other way. Potencies of inconclusive entries are doubtful fits and often do not repeat.
# Test: A quantitative high throughput screen for small molecules that induce DNA re-replication in SW480 colon adenocarcinoma cells. Also: nearly all actives have a fitted effect of over 55% in size. As to re-replication activation: % of control where 0% means no effect.
# Conditions: Hoechst DNA content imaging, 48 h; re-replication activation: at 46.1 µM (top of the series) unless noted
# In short: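 DNA re-replication was detected as more nuclei of elevated Hoechst intensity after 48 hr exposure to compound (23 nL pinned per well of 250 cells).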
# Potency is read from the fitted curve at half-maximal effect.
Structure (SMILES),re-replication activation,Potency
CC(C)n1cnc2c(NCc3ccccc3)cc(OCC3CCN(C)CC3)cc21,inactive: 9.3%,–
CC(C)C[C@H]1CN([C@@H](Cc2ccc(O)cc2)CN2CCC[C@@H]2CN2C(=O)C(=O)NC[C@@H]2Cc2ccccc2)C(=O)C(=O)N1CC1CCCCCC1,–,"inconclusive: 0.13 µM [activator, full curve, poor fit]"
CC1CCCCC1NC(=O)CNC(=O)c1ccco1 (stereo unspecified),–,"inconclusive: 8.2 µM [activator, full curve, poor fit]"
NS(=O)(=O)c1ccc(CCn2c(=S)[nH]c3ccccc3c2=O)cc1,–,"inconclusive: 16.4 µM [activator, single point]"
C=CCN(c1ccccc1)S(=O)(=O)c1cccc(C(=O)Nc2ccc(N3CCOCC3)cc2)c1,–,"inconclusive: 2.31 µM [activator, single point]"
COc1cc(/C=N/N=C(N)N)ccc1OCc1ccc(Cl)cc1,–,"inconclusive: 18.4 µM [activator, single point]"
COc1ccc(OC)c(-n2cc3c(=O)n(C)c(=O)n(C)c3c2)c1,–,"inconclusive: 18.4 µM [activator, single point]"
CN(C)c1cc(N/N=C\c2ccccc2)nc(N(C)C)n1,–,"inconclusive: 2.06 µM [activator, partial curve, poor fit]"
O=C(Nc1cccc(-n2cnnn2)c1)C1CCCN(Cc2cccc(C(F)(F)F)c2)C1 (stereo unspecified),–,"inconclusive: 20.6 µM [activator, single point]"
COc1ccccc1-n1cnc2cc(NCc3ccco3)ccc21,–,active: 1.46 µM
COc1cccc(NC(=O)N2C3CCCC2CC(NC(C)=O)C3)c1 (stereo unspecified),–,"inconclusive: 1.46 µM [activator, partial curve, poor fit]"
Cc1c(C(=O)N2CCOCC2)oc2ccc(Br)cc12,–,"inconclusive: 25.9 µM [activator, single point]"
O=C(c1ccccc1)N1CN2CN(C(=O)c3ccccc3)CC([N+](=O)[O-])(C2)C1,–,"inconclusive: 0.259 µM [activator, full curve]"
Cc1noc(C)c1S(=O)(=O)N1CCCC(C(=O)NCCc2ccccc2)C1 (stereo unspecified),–,"inconclusive: 5.17 µM [activator, full curve, poor fit]"
C[C@@H](CN1CCC[C@H]1CN1C(N)=NC[C@@H]1Cc1ccccc1)N1C[C@@H](Cc2ccccc2)N(CCc2ccc(Cl)c(Cl)c2)C1=N,inactive: -1.64%,–
O=[N+]([O-])c1ccc(CNc2ccc(F)cc2)s1,–,"inconclusive: 29.1 µM [activator, single point]"
Cc1cc(NC(=O)c2ccccc2)ccc1NC(=O)c1ccccc1Cl,–,"inconclusive: 29.1 µM [activator, single point]"
O=C(CCNc1ccc(F)cc1)c1cccc([N+](=O)[O-])c1,–,"inconclusive: 16.4 µM [activator, single point]"
Cc1cccc(NC(=S)N(CCc2ccncc2)C(C)C)c1C,–,"inconclusive: 0.92 µM [activator, full curve, poor fit]"
Cc1nn(-c2ccccc2)c(C)c1C(=O)OCC(=O)Nc1ccc2c(c1)OCO2,–,"inconclusive: 20.6 µM [activator, single point]"
O=C(COc1ccc2ccccc2c1)NNC(=O)C(=O)Nc1ccccc1,–,"inconclusive: 0.651 µM [activator, full curve, poor fit]"

Structure (SMILES),re-replication activation,Potency
CN1C(=O)C2(c3ccccc31)N(C)CC(c1ccccc1)C21SC(=S)N(Cc2ccco2)C1=O (stereo unspecified),–,"inconclusive: 10.3 µM [activator, partial curve, poor fit]"
COc1cccc2oc3cc(C#Cc4ccccn4)ccc3c(=O)c12,inactive: -18.6%,–
Cc1cccn2c(=O)c3cc(C(=O)NCC4CCCO4)c(=N)n(CC4CCCO4)c3nc12 (stereo unspecified),–,active: 3.66 µM
CCc1cc(C(c2ccc(F)cc2)N2CCOCC2)c(NC(=O)c2ccccc2)s1 (stereo unspecified),–,"inconclusive: 0.116 µM [activator, full curve, poor fit]"
Cc1ccc(CNC(=O)CCCN2C(=S)NC(C)(C)CC2C)cc1 (stereo unspecified),inactive: -3.22%,–
Cc1cccc(N2CCN(C(=O)c3ccc(NC4=NC5CS(=O)(=O)CC5S4)cc3)CC2C)c1 (stereo unspecified),–,"inconclusive: 29.1 µM [activator, single point]"
O=C(Cc1n[nH]c(=O)c2ccccc12)NCc1ccc(Cl)cc1,–,"inconclusive: 29.1 µM [activator, single point]"
O=C(COC(=O)CCSc1ccccc1)Nc1ccccc1Br,inactive: -1.18%,–
CC(=O)c1ccccc1NC(=O)COC(=O)CN1C(=O)C2CCCCC2C1=O (stereo unspecified),inactive: 1.66%,–
COc1ccc(C2CC(O)(c3ccccc3)Oc3cc(OC)cc(OC)c32)cc1 (stereo unspecified),inactive: -3.76%,–
CC(C)n1c(NCc2ccc(Cl)cc2)nc2ccccc21,inactive: 0.549%,–
COc1ccc(NS(=O)(=O)c2cc(NC(=O)c3cccs3)ccc2N2CCCC2)cc1,–,"inconclusive: 29.1 µM [activator, single point]"
CSCC[C@H](NC(=O)NC1CCCC1)C(=O)O,–,"inconclusive: 29.1 µM [activator, single point]"
Cn1cnc([N+](=O)[O-])c1Sc1ccc(Br)cc1,–,"inconclusive: 23.1 µM [activator, single point]"
CN(C)S(=O)(=O)c1cccc(C(=O)NCC(C)(C)CNC(=O)c2cccc(S(=O)(=O)N(C)C)c2)c1,inactive: -7.43%,–
CCCCN(CC)CCNC(=S)Nc1ccc2nc(N3CCN(C)CC3)cc(C)c2c1,–,"inconclusive: 23.1 µM [activator, partial curve, poor fit]"
S=c1[nH]nc(-c2ccco2)n1/N=C/C(Cl)=C/c1ccccc1,–,"inconclusive: 20.6 µM [activator, single point]"
O=C(CN1C(=O)C2CC=CCC2C1=O)NCC(=O)Nc1ccc(F)c(F)c1F (stereo unspecified),–,"inconclusive: 2.82 µM [activator, single point]"
COc1ccc2nc(NC(=O)c3ccc4ncsc4c3)sc2c1,–,"inconclusive: 23.1 µM [activator, single point]"
Brc1ccc(-c2csc3ncnc(-n4nnc5ccccc54)c23)cc1,–,"inconclusive: 7.31 µM [activator, partial curve]"

# Complete entries as entered above:
# `COc1ccc2nc(NC(=O)c3ccc4ncsc4c3)sc2c1` is entered as Potency: inconclusive: 23.1 µM [activator, single point]
# `S=c1[nH]nc(-c2ccco2)n1/N=C/C(Cl)=C/c1ccccc1` is entered as Potency: inconclusive: 20.6 µM [activator, single point]
# `CCc1cc(C(c2ccc(F)cc2)N2CCOCC2)c(NC(=O)c2ccccc2)s1` (stereo unspecified) is entered as Potency: inconclusive: 0.116 µM [activator, full curve, poor fit]
